Assay results published in the supplement of paper PMC6078165.
Values are relative to the signal before dosing, not to a vehicle control; the signal also falls without drug.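 Fibroblast labels denote human fibroblasts, mainly primary ones from uterus (C12385, HUF), lung (H6013), bone (Hs27A), adrenal (HADF) and skin (WS1), plus mammary HMF and breast cancer-associated Hs343T. Cancer cells are basal-like or mesenchymal-like triple-negative breast cancer lines. A hit is a response shift exceeding 3x replicate standard deviation. The tissue of the other fibroblasts is not given here.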 Numbered stars: 1 amine (or outer) side, 2 acyl side, 3 side chain; on linkers, the order of the positions; unused ones are H or OH. Bridge positions count the residues as written; N and C are the ends. Square brackets hold non-standard residues; d marks the D form. Peptide text beside a SMILES is read from it. I, II: the chains in the order shown. Actinocin(9to1) = Cc1c2oc3c(C)ccc(C(=O)[*:1])c3nc-2c(C(=O)[*:2])c(N)c1=O; NMeV = CN[C@H](C(=O)O)C(C)C; Sar = CNCC(=O)O

Test system: Hs578T
Assay: relative JC-1 red fluorescence (viability) vs pre-drug, coculture with fibroblast (fraction); higher = more viable cancer cells
Conditions: 10 µM
Experimental: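 JC-1 labelled TNBC cells cocultured 1:1 (1,500 cells each) with CellTrace Violet stained primary or stromal fibroblasts in 384-well plates in FluoroBrite medium, treated with one of 42 anticancer drugs at 0.1, 1, 10 or 100 uM. JC-1 red fluorescence (mitochondrial integrity in cancer cells only) was read by plate reader every 8 h for 72 h. Values are normalised to each well's pre-drug value. The stock of one drug was tenfold lower, so its dose labels may be too high.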

Cc1c2oc3c(C)ccc(C(=O)N[C@@H]4C(=O)N[C@H](C(C)C)C(=O)N5CCC[C@H]5C(=O)N(C)CC(=O)N(C)[C@@H](C(C)C)C(=O)O[C@@H]4C)c3nc-2c(C(=O)N[C@@H]2C(=O)N[C@H](C(C)C)C(=O)N3CCC[C@H]3C(=O)N(C)CC(=O)N(C)[C@@H](C(C)C)C(=O)O[C@@H]2C)c(N)c1=O [Dactinomycin] (I: T[dV]P[Sar][NMeV] / II: T[dV]P[Sar][NMeV]; ester I:1-I:C, II:1-II:C; linker I:N-II:N via Actinocin(9to1))
Conditions | relative JC-1 red fluorescence
8 h | 0.871
16 h | 0.71
24 h | 0.621
32 h | 0.572
40 h | 0.5
48 h | 0.46
56 h | 0.44
64 h | 0.418
72 h | 0.422

relative JC-1 red fluorescence
Conditions | 8 h | 16 h | 24 h | 32 h | 40 h | 48 h | 56 h | 64 h | 72 h
coculture fibroblast: C12385 | 0.7909 | 0.714 | 0.67 | 0.574 | 0.504 | 0.467 | 0.436 | 0.433 | 0.435
coculture fibroblast: H6013 | 0.825 | 0.756 | 0.684 | 0.629 | 0.579 | 0.567 | 0.56 | 0.555 | 0.541
coculture fibroblast: H6019 | 0.8046 | 0.735 | 0.714 | 0.589 | 0.543 | 0.5266 | 0.498 | 0.498 | 0.485
coculture fibroblast: H6076 | 0.9041 | 0.7647 | 0.672 | 0.648 | 0.611 | 0.5808 | 0.544 | 0.537 | 0.529
coculture fibroblast: H6231 | 0.857 | 0.7487 | 0.724 | 0.694 | 0.647 | 0.622 | 0.592 | 0.586 | 0.584
coculture fibroblast: HADF | 0.88 | 0.828 | 0.749 | 0.6631 | 0.618 | 0.605 | 0.579 | 0.574 | 0.546
coculture fibroblast: HCFa | 0.83 | 0.748 | 0.695 | 0.637 | 0.581 | 0.571 | 0.563 | 0.555 | 0.535
coculture fibroblast: HCPF | 0.9186 | 0.822 | 0.759 | 0.7217 | 0.661 | 0.633 | 0.603 | 0.567 | 0.551
coculture fibroblast: HHSteC | 0.85736 | 0.795 | 0.7484 | 0.671 | 0.628 | 0.607 | 0.591 | 0.57 | 0.554
coculture fibroblast: HMF | 0.877 | 0.786 | 0.741 | 0.7 | 0.628 | 0.592 | 0.557 | 0.526 | 0.515
coculture fibroblast: HPFa | 0.837 | 0.764 | 0.726 | 0.695 | 0.693 | 0.67 | 0.648 | 0.649 | 0.638
coculture fibroblast: HUF | 0.835 | 0.734 | 0.709 | 0.604 | 0.541 | 0.525 | 0.495 | 0.496 | 0.484
coculture fibroblast: Hs27A | 0.835 | 0.767 | 0.697 | 0.6541 | 0.639 | 0.656 | 0.637 | 0.64 | 0.602
coculture fibroblast: Hs343T | 0.8937 | 0.742 | 0.666 | 0.625 | 0.547 | 0.525 | 0.511 | 0.506 | 0.509
coculture fibroblast: WS1 | 0.8218 | 0.7017 | 0.66 | 0.557 | 0.488 | 0.468 | 0.435 | 0.432 | 0.43
